Our source for the AC50 values is PubChem BioAssay AID662 (National Center for Advancing Translational Sciences (NCATS), 2007).

Molecules are shown by their SMILES. This is one part of the list. These are further read-outs of the screen, such as a control signal, another cell line or another target. No call is given for them. Most of these compounds were active or inconclusive in the main read-out, so they are no random draw. Potencies come from curve fits of mixed quality, noted in brackets.

As a reminder, the AC50 is the midpoint of the concentration-response curve, whichever way the signal moves.

The assay is described as follows: Cell signaling CRE-BLA (Fsk stim). The following applies: CHO CRE-bla reporter (cAMP response element driving beta-lactamase), forskolin EC10, beta-lactamase ratio; measured here: 460 nm blue channel. The procedure, abridged: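 Titrated compounds plus EC10 NKH 477 on CHO CRE-bla cells, 3 h, 37 °C. CCF4, 2 h RT. Ratio 460/530 nm → AC50.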
For `CC[C@H](C(=O)[C@H](C)[C@H](O)[C@H](C)CCc1ccc(C)c(O)c1C(=O)O)[C@H]1O[C@](CC)([C@@H]2CC[C@@](O)(CC)[C@H](C)O2)C[C@H]1C`, the AC50 is 3.16 µM [falling, partial curve].

On to `CCCCC(OC(=O)c1cc2occc2n1C)C(=O)NCC1CCCO1` (stereo not given), for which the AC50 was 0.00794 µM [falling, full curve, poor fit].

With `COc1ccc(S(=O)(=O)N2CCc3ccccc32)cc1C(=O)OCc1c(C)noc1C`, the AC50 is 3.16 µM [rising, full curve].

`CN1[C@@H]2CC[C@H]1CC(OC(=O)[C@@H](CO)c1ccccc1)C2` (stereo not given in full): the AC50 was 31.6 µM [falling, single point].

In the case of `COC(=O)c1cc(NC(=O)CN(c2ccc3c(c2)OCO3)S(C)(=O)=O)ccc1Cl`, the AC50 is 10 µM [rising, partial curve].

For `Cc1oc(-c2cccs2)nc1CS(=O)CC(=O)NC1CCCCCC1` (stereo not given), the AC50 was 10 µM [falling, partial curve].

Take `O=C(NCc1ccc2c(c1)OCO2)c1cc(-n2cnnc2)ccc1Cl`: the AC50 is 25.1 µM [rising, single point].

As for `Cc1nc2cnc(N(C)C)nc2n(CCc2ccccc2)c1=O`, the AC50 is 12.6 µM [rising, partial curve].

Turning to `CCCn1c(SCc2ccccn2)nc2c1c(=O)n(C)c(=O)n2C`, the AC50 is 12.6 µM [rising, partial curve].

Take `CS(=O)(=O)N1CCCC(C(=O)NCCCN2CCOCC2)C1` (stereo not given): the AC50 was 0.0794 µM [rising, full curve].

On to `COCCCNC(=O)c1ccc2nc3ccccc3c(=O)n2c1`, for which the AC50 was 5.01 µM [rising, partial curve].

`CCOC(=O)c1c(NC(=O)c2csc(C)c2)sc(C(C)=O)c1C`: the AC50 was 6.31 µM [rising, single point].

For the molecule `COc1ccc2cc3cc(C(=O)N4CCN(Cc5ccc6c(c5)OCO6)CC4)oc3nc2c1`, the AC50 was 15.8 µM [falling, partial curve, poor fit].

As for `CC1Cc2ccccc2N1C(=O)CSc1nnc2n1C(C)(C)Cc1ccccc1-2` (stereo not given), the AC50 is 12.6 µM [rising, single point].

For `COC(=O)c1sccc1NC(=O)c1csc(C)c1`, the AC50 is 25.1 µM [rising, single point].

Take `CCn1c(C(=O)N2CCC(C(=O)NCCCSC3CCCCC3)CC2)cc2sccc21`: the AC50 is 25.1 µM [falling, single point].

For `C=C(C)COc1ccc(-c2nc(N)nc(C)c2Oc2ccccc2OC)c(O)c1`, the AC50 was 6.31 µM [falling, partial curve].

Regarding `COc1ccc(-n2c(Cc3cccn3C)nnc2SCC(=O)Nc2cccc(Cl)c2)cc1`, the AC50 was 12.6 µM [falling, partial curve].

On to `COc1ccc2[nH]c(=O)c(CN(C(=O)c3ccco3)C3CCCCC3)cc2c1`, for which the AC50 was 10 µM [rising, single point].

Regarding `COC(=O)c1[nH]c2ccc(C)cc2c1NC(=O)CCN1CCN(C2CCCCC2)CC1`, the AC50 was 3.16 µM [falling, single point].

`C(=C\CSc1nnnn1-c1ccccc1)/CSc1nnnn1-c1ccccc1`: the AC50 was 20 µM [falling, single point].

Regarding `COc1cc(C(=O)NCc2cn3ccsc3n2)cc(OC)c1OC`, the half-maximal activity concentration (AC50) is 10 µM [rising, partial curve].

As to `CC(C)Cn1c(N)c(C(=O)COC(=O)c2ccc3ccccc3n2)c(=O)n(C)c1=O`, the AC50 was 0.794 µM [rising, full curve].

`Cc1cccc2cc(CN(CCN3CCCC3)C(=O)NC3CCCCC3)c(=O)[nH]c12`: the AC50 is 25.1 µM [falling, single point].

As for `Cc1c(S(=O)(=O)Nc2cccc(Cl)c2)c(=O)n(C)c(=O)n1C`, the AC50 is 0.631 µM [rising, partial curve].

For `Cc1cc(C)nc(SCc2csc(N)n2)n1`, the AC50 was 0.631 µM [rising, single point].

As to `O=S(=O)(CCSc1ccccn1)c1nc2ccccc2s1`, the AC50 is 10 µM [falling, partial curve, poor fit].

For the molecule `CC(=O)c1cccc(NC(=O)C2CCN(S(=O)(=O)c3c(C)n[nH]c3C)CC2)c1`, the half-maximal activity concentration (AC50) is 3.98 µM [falling, full curve, poor fit].

On to `Cn1cnnc1SCC(=O)Nc1sccc1C#N`, for which the AC50 was 3.16 µM [falling, partial curve].

With `COc1cccc(-c2nn(C)c3sc(C(=O)Nc4ccc5c(c4)OCCO5)cc23)c1`, the AC50 is 6.31 µM [rising, partial curve].

For the molecule `COc1ccc2nc(NC(=O)CSC3=NCCS3)sc2c1`, the AC50 was 25.1 µM [falling, single point].

Turning to `O=C(CN1C(=O)C2CC=C(Cl)CC2C1=O)NCc1ccccc1` (stereo not given), the concentration at half-maximal activity (AC50) is 0.794 µM [rising, partial curve].

For `CCN1C(=O)NC2C1N(S(C)(=O)=O)CCN2S(C)(=O)=O` (stereo not given), the AC50 was 5.01 µM [falling, partial curve].

For the molecule `O=C(c1ccccc1)c1ccc2nc(N3CCN(C(=O)c4ccco4)CC3)c3nncn3c2c1`, the AC50 was 10 µM [rising, single point].

For the molecule `CCOc1cc(N2CCOCC2)c(OCC)cc1NC(=O)Cn1[nH]c(=O)c2ccccc2c1=O`, the concentration at half-maximal activity (AC50) was 0.1 µM [rising, full curve].

As for `CCn1c(SCc2cccnc2)nc2c1c(=O)n(C)c(=O)n2C`, the AC50 is 6.31 µM [rising, partial curve].

Take `Cc1ccc(-c2n[nH]c(=O)c3ccccc23)cc1N`: the AC50 is 25.1 µM [falling, single point].

With `N#Cc1nc(-c2ccc(Cl)cc2)oc1NCc1cccc2c1OCO2`, the AC50 was 7.94 µM [rising, partial curve].

In the case of `COc1ccc(S(=O)(=O)N2CCCC(C(=O)O)C2)cc1` (stereo not given), the concentration at half-maximal activity (AC50) was 0.0631 µM [rising, full curve, poor fit].

Consider `O/N=C1\CC/C(=N\O)c2nn(-c3ccccc3Cl)nc21`, for which the AC50 was 25.1 µM [falling, single point].

For the molecule `COc1ccc(Oc2ncc3nc(-c4cn(C)c5ccccc45)c(=O)n(C4CC4)c3n2)cc1`, the AC50 is 1.26 µM [rising, full curve].

For the molecule `COC(=O)c1sc(N)c(C(=O)OC)c1CSc1nc2sc3c(c2c(=O)n1C)CCC3`, the AC50 is 25.1 µM [rising, single point].

Consider `CSC1=NCCN1C(=O)c1ccc(S(=O)(=O)N2CCCCC2)cc1`, for which the AC50 is 10 µM [rising, single point].

For the molecule `CC(C)c1cccc2nc3c(c(C(C)(C)C)c12)Cn1c-3cccc1=O`, the AC50 was 10 µM [rising, partial curve].

With `O=C(Nc1cccc(-c2nnc(-c3ccccc3)o2)c1)c1ccc(Br)o1`, the AC50 was 12.6 µM [falling, single point].

Turning to `CC(=O)C1=C(C)NC(C)=C(C(C)=O)C1c1ccc(-c2ccccc2Cl)o1`, the concentration at half-maximal activity (AC50) is 25.1 µM [rising, single point].

In the case of `COC(=O)c1ccccc1NC(=O)CSc1nc(-c2ccco2)cc(C(F)(F)F)n1`, the AC50 is 1.26 µM [rising, full curve].

`CCN(CC)c1ccc2cc(-c3nc4ccccc4[nH]3)c(=O)oc2c1`: the AC50 is 3.16 µM [rising, partial curve].

On to `COCCOC(=O)C1=C(C)NC2=C(C(=O)CC(c3cccs3)C2)C1c1ccsc1` (stereo not given), for which the AC50 was 12.6 µM [rising, partial curve].

On to `O=C(O)c1ccc2c3c1cccc3c(=O)n1c3ccccc3nc21`, for which the AC50 was 5.01 µM [rising, partial curve].

Regarding `CC(C)(C)n1ncc2c(=O)n(CC(=O)NC3CCCCC3)cnc21`, the AC50 was 0.316 µM [falling, partial curve].

`Cn1c(C(=O)Nc2ccc3c(c2)OCCO3)cc2c(=O)n(C)c3ccccc3c21`: the AC50 is 0.398 µM [rising, full curve].

On to `CC(=O)Cc1nsc(NC(=O)c2ccc(-c3ccc(Cl)c(C(F)(F)F)c3)o2)n1`, for which the AC50 is 25.1 µM [falling, single point].

On to `COc1ccc(-c2nnc(SCC(=O)N3CCCc4ccccc43)o2)cc1OC`, for which the AC50 was 1.26 µM [rising, partial curve].

Turning to `Cc1c(-c2nc(N)nc(Nc3ccccc3F)n2)oc2ccccc12`, the AC50 was 2 µM [rising, full curve].

Consider `O=C(c1cccc(F)c1)N1CCC2(CCCN(C(c3ccccc3)c3ccccc3)C2)CC1`, for which the AC50 was 12.6 µM [rising, single point].

Consider `COc1ccc(-n2c(=O)c(C)nc3cnc(N(C)C)nc32)cc1`, for which the concentration at half-maximal activity (AC50) was 12.6 µM [rising, partial curve].

Turning to `CCn1c(=O)c(C(=O)NCc2cccnc2)c(O)c2ccccc21`, the AC50 was 2.51 µM [rising, full curve].

For the molecule `O=C(NCc1ccco1)c1ccccc1Br`, the AC50 was 20 µM [falling, single point].

In the case of `CCOC(=O)c1ccc2c(c1)nc(C1CCN(S(=O)(=O)c3cccs3)CC1)n2CC`, the half-maximal activity concentration (AC50) was 0.00316 µM [falling, full curve, poor fit].

As for `COc1ccc(CNC(=O)c2cc3c(=O)n4ccccc4nc3n(Cc3cccnc3)c2=N)cc1`, the AC50 is 7.94 µM [rising, partial curve, poor fit].

`CC1(C)C(c2cccs2)=[N+]([O-])C2(CCCCC/C2=N\O)N1O` (stereo not given): the AC50 is 0.126 µM [falling, full curve, poor fit].

For `O=c1c2ccccc2nc(SCc2cn3ccsc3n2)n1-c1ccccc1`, the concentration at half-maximal activity (AC50) is 1.26 µM [rising, full curve].

On to `CCCn1c(NC(=O)C2CCN(S(=O)(=O)c3cccs3)CC2)nc2ccccc21`, for which the AC50 was 7.94 µM [falling, partial curve].

Take `CCOC(=O)N1CCC(c2nc3ccccc3[nH]2)CC1`: the AC50 is 6.31 µM [falling, partial curve, poor fit].
